Laboratory results taken from PubChem BioAssay AID330 (DTP/NCI, 2004).
The list is a part of this screen's results and no random one: it gathers tests that were run many times, whatever their T/C, doses with no T/C, and many T/C values between a quarter and a half above the control. Further doses and runs are listed elsewhere. T/C gives the treated animals as a percentage of the vehicle group. Some entries give survivors of the animals treated and no T/C: the source holds a T/C of zero for them, seemingly a mark for toxic or unscored doses. Some doses without a T/C left all or most animals alive at the check, yet need not have been tolerated: survival well below the control is almost never listed, so the zero probably covers shortened survival too. Survivors were counted at the toxicity check, usually on the fifth day, unless a day is given; later deaths do not show. Schedule codes are those of the source, read here as Q, the interval in days (D) or hours (H), X, the number of doses. Some entries were tested several times; the values are given in rising order. For survival time, this PubChem deposit counts one and a half times the control or more as active, and values a quarter to a half above the control carry no call in these data; other NCI protocols may use other cut-offs. Counts like (3×) stand for listed records that agree. Some T/C values carry the count of animals alive at the toxicity check (mostly the fifth day); where none is given, no animal had died by that day.

Tested on: P388 leukemia ip, CD2F1 mice, survival T/C
Experiment: NCI In Vivo Anticancer Drug Screen. Data for tumor model P388 Leukemia (intraperitoneal) in CD2F1 (CDF1) mice
Settings: T/C endpoint: median survival time, higher T/C = longer survival
[1] = dose: 100.0 mg/kg/injection, schedule: Q01DX005 (ip), vehicle: saline
[2] = dose: 160.0 mg/kg/injection, schedule: Q01DX009 (ip), vehicle: other
[3] = dose: 200.0 mg/kg/injection, schedule: Q01DX009 (ip), vehicle: Klucel (hydroxypropylcellulose) (HPC)
[4] = dose: 240.0 mg/kg/injection, schedule: Q01DX005 (ip), vehicle: saline with Tween-80
[5] = dose: 50.0 mg/kg/injection, schedule: Q01DX005 (ip), vehicle: Klucel (hydroxypropylcellulose) (HPC)
[6] = dose: 12.5 mg/kg/injection, schedule: Q01DX009 (ip), vehicle: Klucel (hydroxypropylcellulose) (HPC)
[7] = dose: 200.0 mg/kg/injection, schedule: Q01DX009 (ip), vehicle: saline
[8] = dose: 100.0 mg/kg/injection, schedule: Q01DX005 (ip), vehicle: Klucel (hydroxypropylcellulose) (HPC)
[9] = dose: 200.0 mg/kg/injection, schedule: Q01DX005 (ip), vehicle: Klucel (hydroxypropylcellulose) (HPC)
[10] = dose: 200.0 mg/kg/injection, schedule: Q01DX005 (ip), vehicle: saline
[11] = dose: 50.0 mg/kg/injection, schedule: Q01DX009 (ip), vehicle: saline with Tween-80
[12] = dose: 200.0 mg/kg/injection, schedule: Q01DX009 (ip), vehicle: saline with Tween-80

**Q.** How did the T/C (dose: 20.0 mg/kg/injection, schedule: Q01DX009 (ip), vehicle: other) turn out when S=c1nc[nH]c2nc[nH]c12 was run?
**A.** 95, 104, 106 (2×), 109, 118, 122 % of control

**Q.** What about the T/C (dose: 40.0 mg/kg/injection, schedule: Q01DX009 (ip), vehicle: other) of the same molecule?
**A.** 93, 96, 103, 106, 111, 115, 134 % of control

**Q.** And the T/C (dose: 80.0 mg/kg/injection, schedule: Q01DX001 (ip), vehicle: other)?
**A.** 135 % of control

**Q.** And the T/C (dose: 80.0 mg/kg/injection, schedule: Q01DX005 (ip), vehicle: other)?
**A.** 128 % of control

**Q.** What about the survivor count (dose: 80.0 mg/kg/injection, schedule: Q01DX009 (ip), vehicle: alkali diluted with water) of the same molecule?
**A.** 6 of 6

**Q.** What about the T/C (dose: 80.0 mg/kg/injection, schedule: Q01DX009 (ip), vehicle: other) of the same molecule?
**A.** 92, 98, 101, 116, 120, 121, 146 % of control

**Q.** What about the T/C (dose: 80.0 mg/kg/injection, schedule: Q04DX003 (ip), vehicle: other) of the same molecule?
**A.** 130 % of control

**Q.** What about the T/C [1] of the same molecule?
**A.** 140 % of control

**Q.** And the T/C (dose: 100.0 mg/kg/injection, schedule: Q01DX009 (ip), vehicle: Klucel (hydroxypropylcellulose) (HPC))?
**A.** 136 % of control

**Q.** And the survivor count (dose: 150.0 mg/kg/injection, schedule: Q01DX009 (ip), vehicle: alkali diluted with saline)?
**A.** 8 of 8

**Q.** What about the T/C (dose: 150.0 mg/kg/injection, schedule: Q04DX003 (ip), vehicle: Klucel (hydroxypropylcellulose) (HPC)) of the same molecule?
**A.** 139 % of control

**Q.** And the T/C (dose: 160.0 mg/kg/injection, schedule: Q01DX001 (ip), vehicle: other)?
**A.** 127 % of control

**Q.** And the T/C (dose: 160.0 mg/kg/injection, schedule: Q01DX005 (ip), vehicle: alkali diluted with saline)?
**A.** 142 % of control [5 of 6 alive]

**Q.** And the survivor count (dose: 160.0 mg/kg/injection, schedule: Q01DX009 (ip), vehicle: alkali diluted with water)?
**A.** 4 of 6

**Q.** What about the T/C [2] of the same molecule?
**A.** 129 and 134 % of control

**Q.** What about the survivor count [2] of the same molecule?
**A.** 4 of 6, 5 of 6, 6 of 6

**Q.** And the T/C (dose: 160.0 mg/kg/injection, schedule: Q04DX003 (ip), vehicle: other)?
**A.** 140 % of control

**Q.** What about the T/C (dose: 160.0 mg/kg/injection, schedule: Q04DX003 (iv), vehicle: other) of the same molecule?
**A.** 138 % of control

**Q.** What about the survivor count (dose: 200.0 mg/kg/injection, schedule: Q01DX005 (ip), vehicle: alkali diluted with saline) of the same molecule?
**A.** 0 of 6

**Q.** And the T/C [3]?
**A.** 125 % of control

**Q.** What about the survivor count (dose: 250.0 mg/kg/injection, schedule: Q01DX001 (ip), vehicle: alkali diluted with saline) of the same molecule?
**A.** 2 of 6

**Q.** What about the T/C (dose: 300.0 mg/kg/injection, schedule: Q04DX003 (ip), vehicle: Klucel (hydroxypropylcellulose) (HPC)) of the same molecule?
**A.** 135 % of control

**Q.** And the survivor count (dose: 320.0 mg/kg/injection, schedule: Q01DX009 (ip), vehicle: alkali diluted with water)?
**A.** 0 of 6

**Q.** And the T/C (dose: 320.0 mg/kg/injection, schedule: Q04DX003 (ip), vehicle: other)?
**A.** 137 % of control [5 of 6 alive]

**Q.** And the survivor count (dose: 400.0 mg/kg/injection, schedule: Q01DX005 (ip), vehicle: saline)?
**A.** 4 of 6 and 5 of 6

**Q.** And the survivor count (dose: 450.0 mg/kg/injection, schedule: Q04DX003 (ip), vehicle: alkali diluted with saline)?
**A.** 3 of 8

**Q.** What about the T/C (dose: 500.0 mg/kg/injection, schedule: Q01DX001 (ip), vehicle: saline) of the same molecule?
**A.** 125 % of control

**Q.** And the T/C (dose: 600.0 mg/kg/injection, schedule: Q04DX003 (ip), vehicle: Klucel (hydroxypropylcellulose) (HPC))?
**A.** 132 % of control

**Q.** What about the survivor count (dose: 640.0 mg/kg/injection, schedule: Q01DX001 (ip), vehicle: other) of the same molecule?
**A.** 5 of 6

**Q.** What about the T/C (dose: 1000.0 mg/kg/injection, schedule: Q01DX001 (ip), vehicle: saline) of the same molecule?
**A.** 130 % of control

**Q.** What about the survivor count (dose: 2000.0 mg/kg/injection, schedule: Q01DX001 (ip), vehicle: saline) of the same molecule?
**A.** 5 of 6

**Q.** How did the T/C (dose: 120.0 mg/kg/injection, schedule: Q01DX005 (ip), vehicle: saline with Tween-80) turn out when COc1cc(C2c3cc4c(cc3OC(=O)C2C(C)=O)OCO4)cc(OC)c1OC (centres undefined) was run?
**A.** 134 % of control

**Q.** And the survivor count [4]?
**A.** 4 of 6 and 5 of 6

**Q.** How did the survivor count [5] turn out when COc1cc2oc3cc(OC)c(OC)c(CC=C(C)C)c3c(=O)c2c(O)c1CC=C(C)C was run?
**A.** 6 of 6

**Q.** How did the T/C [6] turn out when N#CC(C#N)=C/C=C/c1cccc([N+](=O)[O-])c1 was run?
**A.** 127 and 128 % of control

**Q.** What about the T/C (dose: 18.0 mg/kg/injection, schedule: Q01DX009 (ip), vehicle: Klucel (hydroxypropylcellulose) (HPC)) of the same molecule?
**A.** 132 % of control

**Q.** And the survivor count (dose: 50.0 mg/kg/injection, schedule: Q01DX009 (ip), vehicle: Klucel (hydroxypropylcellulose) (HPC))?
**A.** 2 of 6

**Q.** Which survivor count [7] does the source give for CC1=CCC(CC2CO2)C1(C)C (centres undefined) here?
**A.** 6 of 6

**Q.** Which results are given for O=c1[nH]c(=O)c2cccnc2[nH]1?
**A.** T/C (dose: 6.25 mg/kg/injection, schedule: Q01DX009 (ip), vehicle: Klucel (hydroxypropylcellulose) (HPC)): 127 % of control; T/C [6]: 127 % of control; T/C (dose: 25.0 mg/kg/injection, schedule: Q01DX009 (ip), vehicle: Klucel (hydroxypropylcellulose) (HPC)): 125 % of control; survivor count [3]: 6 of 6

**Q.** For CC(=O)Nc1ccc(Sc2ncc([N+](=O)[O-])s2)cc1, which survivor count [3] is on record?
**A.** 0 of 6

**Q.** What does the source list for CCN(CC)CC(=O)O[C@]1(CC)C(=O)OCc2c1cc1n(c2=O)Cc2cc3ccccc3nc2-1?
**A.** T/C (dose: 2.0 mg/kg/injection, schedule: Q01DX005 (ip), vehicle: water): 136 % of control; T/C (dose: 4.0 mg/kg/injection, schedule: Q01DX005 (ip), vehicle: water): 132 and 141 % of control; survivor count (dose: 16.0 mg/kg/injection, schedule: Q01DX005 (ip), vehicle: water): 6 of 6

**Q.** Which survivor count (dose: 12.5 mg/kg/injection, schedule: Q01DX005 (ip), vehicle: Klucel (hydroxypropylcellulose) (HPC)) does the source give for OC(c1ccccc1I1OC(C(F)(F)F)(C(F)(F)F)c2ccccc21)(C(F)(F)F)C(F)(F)F (tested in a mixture with another compound) here?
**A.** 1 of 6

**Q.** And the survivor count (dose: 25.0 mg/kg/injection, schedule: Q01DX005 (ip), vehicle: Klucel (hydroxypropylcellulose) (HPC))?
**A.** 0 of 6

**Q.** And the survivor count [5]?
**A.** 0 of 6

**Q.** What about the survivor count [8] of the same molecule?
**A.** 0 of 6

**Q.** And the survivor count [9]?
**A.** 0 of 6

**Q.** Which survivor count [4] does the source give for Nc1nc(N)c2nc(-c3ccc([N+](=O)[O-])cc3)c(Cl)nc2n1 here?
**A.** 3 of 6

**Q.** How did the survivor count (dose: 25.0 mg/kg/injection, schedule: Q01DX005 (ip), vehicle: saline) turn out when COc1cccc(/C=C/C(=O)C(CN(C)C)CN(C)C)c1 was run?
**A.** 0 of 6

**Q.** What about the survivor count (dose: 50.0 mg/kg/injection, schedule: Q01DX005 (ip), vehicle: saline) of the same molecule?
**A.** 0 of 6

**Q.** What about the survivor count [1] of the same molecule?
**A.** 0 of 6

**Q.** What about the survivor count [10] of the same molecule?
**A.** 0 of 6

**Q.** With O=C(NC1CCCCC1)C1C(=O)C(=O)N(C2CCCCC2)C1=O (centres undefined) as the molecule, how does the survivor count (dose: 200.0 mg/kg/injection, schedule: Q01DX005 (ip), vehicle: saline with Tween-80) read?
**A.** 1 of 6

**Q.** For Nc1ncc2c(=O)c3c(ccc4ccccc43)oc2n1, which survivor count [11] is on record?
**A.** 6 of 6

**Q.** What about the survivor count [12] of the same molecule?
**A.** 6 of 6

**Q.** For COc1ccc(C(=O)c2no[n+]([O-])c2C(=O)c2ccc(OC)cc2)cc1, which T/C [12] is on record?
**A.** 126 % of control

**Q.** How did the survivor count (dose: 200.0 mg/kg/injection, schedule: Q01DX001 (ip), vehicle: saline with Tween-80) turn out when c1ccc(CCN2CCC3(CC2)COCc2ccccc23)cc1 was run?
**A.** 0 of 6

**Q.** And the survivor count (dose: 400.0 mg/kg/injection, schedule: Q01DX001 (ip), vehicle: saline with Tween-80)?
**A.** 0 of 6

**Q.** Which survivor count [7] does the source give for CN1C(=O)Cc2ccccc2C1=O here?
**A.** 4 of 6

**Q.** For CC1=C(Br)C(c2ccccc2)=Nc2ccccc2N1, which survivor count [11] is on record?
**A.** 6 of 6

**Q.** What about the survivor count [7] of the same molecule?
**A.** 2 of 6

**Q.** What does the source list for N=c1oc(-c2ccccc2)cc2ccccc12?
**A.** survivor count [5]: 3 of 5; survivor count [8]: 2 of 5; survivor count [9]: 0 of 5

**Q.** NC(=S)Nc1cccc(C(F)(F)F)c1 was tested. Which survivor count (dose: 400.0 mg/kg/injection, schedule: Q01DX009 (ip), vehicle: other) did it give?
**A.** 0 of 6

**Q.** For c1cc2nc(-c3ccc4oc(C5=NCCN5)cc4c3)[nH]c2cc1C1=NCCN1, which survivor count [1] is on record?
**A.** 2 of 6

**Q.** What about the survivor count [10] of the same molecule?
**A.** 0 of 6

**Q.** O=c1c2ccccc2ncn1CC1(O)CC2NCCCC2O1 (centres undefined) was tested. Which survivor count (dose: 40.0 mg/kg/injection, schedule: Q01DX009 (ip), vehicle: Klucel (hydroxypropylcellulose) (HPC)) did it give?
**A.** 2 of 6

**Q.** What does the source list for Cc1c(-c2ccccc2)ccnc1/C=N/NC(N)=S?
**A.** T/C (dose: 50.0 mg/kg/injection, schedule: Q01DX009 (ip), vehicle: saline): 129 and 132 % of control; survivor count [7]: 4 of 6
